# From patent US20030028002A1, “Cyclin D binding factor, and uses thereof” (published 2003)
# By UniProt entry, the sequences of proteins in these tests, tags left out. Where a name states a change or a piece, a line headed by the entry shows the natural chain unless it says otherwise.
# UniProt Q8CE22: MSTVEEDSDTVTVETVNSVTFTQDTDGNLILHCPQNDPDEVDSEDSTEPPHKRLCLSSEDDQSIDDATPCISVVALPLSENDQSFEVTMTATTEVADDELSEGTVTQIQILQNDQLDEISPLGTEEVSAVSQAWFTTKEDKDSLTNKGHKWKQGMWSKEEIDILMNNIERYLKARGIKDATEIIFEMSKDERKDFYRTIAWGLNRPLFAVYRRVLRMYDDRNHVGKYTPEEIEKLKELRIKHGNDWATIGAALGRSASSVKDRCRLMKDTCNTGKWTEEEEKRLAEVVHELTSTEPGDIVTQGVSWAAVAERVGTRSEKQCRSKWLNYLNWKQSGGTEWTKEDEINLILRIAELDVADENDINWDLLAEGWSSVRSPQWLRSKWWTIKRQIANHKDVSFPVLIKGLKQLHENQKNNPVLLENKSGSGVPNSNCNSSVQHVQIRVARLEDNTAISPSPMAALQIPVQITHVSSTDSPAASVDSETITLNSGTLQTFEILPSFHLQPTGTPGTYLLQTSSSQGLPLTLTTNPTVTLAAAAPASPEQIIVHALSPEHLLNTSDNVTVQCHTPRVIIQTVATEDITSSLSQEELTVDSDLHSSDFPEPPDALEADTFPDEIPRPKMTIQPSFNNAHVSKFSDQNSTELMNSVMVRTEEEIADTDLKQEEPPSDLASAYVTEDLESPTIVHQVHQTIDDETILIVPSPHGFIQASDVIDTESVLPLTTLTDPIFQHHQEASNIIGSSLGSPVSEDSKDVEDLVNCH
# The exact form of at least one protein or probe is not confirmed. For part of these data: No signal at the amounts used counts as a negative. For part of these data: A weaker result is weaker than the reference pair of the same experiment. For part of these data: At least one result comes from cells or an extract, where the contact may be indirect.
# What was measured:
# [1] = target: DMP1 endogenous (NIH-3T3 and CTLL extracts) (Mus musculus) (UniProt Q8CE22); experiment: competition with a labelled probe; conditions: protein in an extract
# DMP1 (Mus musculus) [2] = target: DMP1 (Mus musculus) (UniProt Q8CE22); experiment: EMSA; conditions: protein in a lysate after overexpression, protein details: baculovirus Sf9 lysate, label: 32P
# [3] = test system: GST-Ets2 (contains complete Ets2 DNA-binding domain); experiment: EMSA; conditions: purified recombinant protein, protein details: GST, label: 32P
# [4] = target: DMP1 (bacterial, His-tagged polypeptide) (Mus musculus) (UniProt Q8CE22); experiment: SELEX; conditions: 5' CCC preference less pronounced; purified recombinant protein; protein details: His; only the motif is given
# DMP1 (Mus musculus) [5] = target: DMP1 (Mus musculus) (UniProt Q8CE22); experiment: competition with a labelled probe; conditions: protein in a lysate after overexpression, protein details: baculovirus Sf9 lysate
# DMP1 M2 (Mus musculus) = DMP1 M2 (Mus musculus) (UniProt Q8CE22); experiment: EMSA; conditions: protein in a lysate after overexpression; protein details: Flag; label: 32P
# DMP1 M5 (Mus musculus) = DMP1 M5 (Mus musculus) (UniProt Q8CE22); experiment: EMSA; conditions: protein in a lysate after overexpression; protein details: Flag; label: 32P
# DMP1 M9 (Mus musculus) = DMP1 M9 (Mus musculus) (UniProt Q8CE22); experiment: EMSA; conditions: protein in a lysate after overexpression; protein details: Flag; label: 32P
# [6] = target: DMP1 endogenous (NIH-3T3 and CTLL extracts) (Mus musculus) (UniProt Q8CE22); experiment: EMSA; conditions: A-complex supershifted/depleted by DMP1 antisera; protein in an extract; label: 32P
# DMP1 M1 (Mus musculus) = DMP1 M1 (Mus musculus) (UniProt Q8CE22); experiment: EMSA; conditions: protein in a lysate after overexpression; protein details: Flag; label: 32P
# DMP1 M10 (Mus musculus) = DMP1 M10 (Mus musculus) (UniProt Q8CE22); experiment: EMSA; conditions: protein in a lysate after overexpression; protein details: Flag; label: 32P
# [7] = target: DMP1 wild type (Flag) (Mus musculus) (UniProt Q8CE22); experiment: EMSA; conditions: NIH-3T3 transfection lysate; protein in a lysate after overexpression; protein details: Flag; label: 32P
# DMP1 M3 (Mus musculus) = DMP1 M3 (Mus musculus) (UniProt Q8CE22); experiment: EMSA; conditions: protein in a lysate after overexpression; protein details: Flag; label: 32P
# DMP1 M6 (Mus musculus) = DMP1 M6 (Mus musculus) (UniProt Q8CE22); experiment: EMSA; conditions: protein in a lysate after overexpression; protein details: Flag; label: 32P
# DMP1 M4 (Mus musculus) = DMP1 M4 (Mus musculus) (UniProt Q8CE22); experiment: EMSA; conditions: protein in a lysate after overexpression; protein details: Flag; label: 32P
# DMP1 M7 (Mus musculus) = DMP1 M7 (Mus musculus) (UniProt Q8CE22); experiment: EMSA; conditions: protein in a lysate after overexpression; protein details: Flag; label: 32P
# DMP1 M8 (Mus musculus) = DMP1 M8 (Mus musculus) (UniProt Q8CE22); experiment: EMSA; conditions: protein in a lysate after overexpression; protein details: Flag; label: 32P
# [8] = test system: GST-Ets2 (contains complete Ets2 DNA-binding domain); experiment: competition with a labelled probe; conditions: purified recombinant protein, protein details: GST, variant of BS1
# [9] = target: T1, DMP1 expressed in 293T cells (Mus musculus) (UniProt Q8CE22); experiment: activity in cells; conditions: 7x M3 reporter, no transactivation; protein in cells; variant of BS1
# T1 sequence: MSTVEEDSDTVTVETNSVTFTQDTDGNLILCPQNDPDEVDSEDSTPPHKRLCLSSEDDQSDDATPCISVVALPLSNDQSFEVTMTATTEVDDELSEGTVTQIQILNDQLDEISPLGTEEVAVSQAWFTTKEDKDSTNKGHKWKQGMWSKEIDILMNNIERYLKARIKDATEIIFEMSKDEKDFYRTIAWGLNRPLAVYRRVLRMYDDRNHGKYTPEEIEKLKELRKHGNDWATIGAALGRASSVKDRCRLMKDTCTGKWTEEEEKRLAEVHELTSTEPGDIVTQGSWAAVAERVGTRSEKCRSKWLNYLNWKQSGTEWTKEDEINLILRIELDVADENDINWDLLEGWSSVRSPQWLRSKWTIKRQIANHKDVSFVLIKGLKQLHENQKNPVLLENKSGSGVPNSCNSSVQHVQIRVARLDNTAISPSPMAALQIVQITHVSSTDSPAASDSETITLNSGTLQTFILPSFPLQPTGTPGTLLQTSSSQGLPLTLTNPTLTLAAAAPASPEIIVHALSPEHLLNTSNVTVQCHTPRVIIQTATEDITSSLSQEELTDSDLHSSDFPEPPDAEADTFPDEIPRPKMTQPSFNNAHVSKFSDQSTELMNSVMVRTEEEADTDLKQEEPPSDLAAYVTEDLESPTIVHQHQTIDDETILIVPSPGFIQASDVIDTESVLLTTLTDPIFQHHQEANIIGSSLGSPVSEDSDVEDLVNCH
# [10] = does not compete BS1 probe, variant of BS1
sequence,measurement,setting,value
AATTGACCCGGATGTAGGTACGC (double strand) [BS1],binding result,"[1]; BS1 competes A-complex, label: 32P",binds
same,binding result,"DMP1 (Mus musculus) [2]; Sf9 lysate, poly(dI-dC), 1.5 mM MgCl2, 4 C, BS1 competes better than BS2",binds
same,binding result,[3],binds
GGATG (double strand) [GGATG-containing selected oligos],selection result,[4],selected
AATTGATTTGGATGTAGGTACGC (double strand) [M2 oligo],binding result,DMP1 (Mus musculus) [5]; [10],no binding
AATTGACCCTGCGGTAGGTACGC (double strand) [M1 oligo],binding result,DMP1 (Mus musculus) [5]; [10],no binding
AATTGGGACCCCGGATGCGGCAG (double strand) [ARF DMP1/Ets site oligo 23 bp],binding result,"DMP1 (Mus musculus) [5]; completely inhibits binding to 281 bp fragment, 200-fold excess",binds
AATTGACCCGTATGTAGGTACGC (double strand) [BS2],binding result,DMP1 M2 (Mus musculus),binds
same,binding result,DMP1 M5 (Mus musculus),binds
same,binding result,DMP1 M9 (Mus musculus),no binding
same,binding result,[6],binds
same,binding result,DMP1 (Mus musculus) [2],binds
same,binding result,DMP1 M1 (Mus musculus),binds
same,binding result,DMP1 M10 (Mus musculus),binds
same,binding result,[7],binds
same,binding result,DMP1 M3 (Mus musculus),binds
same,binding result,DMP1 M6 (Mus musculus),no binding
same,binding result,DMP1 M4 (Mus musculus),no binding
same,binding result,DMP1 M7 (Mus musculus),no binding
same,binding result,"[3]; not detectable with labeled BS2, no competition of BS1",no binding
same,binding result,DMP1 M8 (Mus musculus),no binding
AATTGACCAGGATGTAGGTACGC (double strand) [M4 oligo],binding result,"DMP1 (Mus musculus) [5]; competes at high concentrations, variant of BS1",binds more weakly
same,binding result,[8]; high concentrations of M4 compete for BS1 binding,binds more weakly
AATTGACCCGGAAGTAGGTACGC (double strand) [M3 oligo (Ets-specific)],binding result,"[1]; M3 does not compete A-complex, variant of BS1",no binding
same,binding result,"DMP1 (Mus musculus) [5]; does not compete BS1 or BS2 probes, variant of BS1",no binding
same,binding result,[8]; competes BS1 probe,binds
same,activity on this sequence,[9],not active
